Among the data in paper PMC11736009 are binding values, retold here.

Amino acid sequences for entries named in this document (tags omitted). A change or cut given only in a name is not applied to a line headed by its entry.
UniProt Q9Z207: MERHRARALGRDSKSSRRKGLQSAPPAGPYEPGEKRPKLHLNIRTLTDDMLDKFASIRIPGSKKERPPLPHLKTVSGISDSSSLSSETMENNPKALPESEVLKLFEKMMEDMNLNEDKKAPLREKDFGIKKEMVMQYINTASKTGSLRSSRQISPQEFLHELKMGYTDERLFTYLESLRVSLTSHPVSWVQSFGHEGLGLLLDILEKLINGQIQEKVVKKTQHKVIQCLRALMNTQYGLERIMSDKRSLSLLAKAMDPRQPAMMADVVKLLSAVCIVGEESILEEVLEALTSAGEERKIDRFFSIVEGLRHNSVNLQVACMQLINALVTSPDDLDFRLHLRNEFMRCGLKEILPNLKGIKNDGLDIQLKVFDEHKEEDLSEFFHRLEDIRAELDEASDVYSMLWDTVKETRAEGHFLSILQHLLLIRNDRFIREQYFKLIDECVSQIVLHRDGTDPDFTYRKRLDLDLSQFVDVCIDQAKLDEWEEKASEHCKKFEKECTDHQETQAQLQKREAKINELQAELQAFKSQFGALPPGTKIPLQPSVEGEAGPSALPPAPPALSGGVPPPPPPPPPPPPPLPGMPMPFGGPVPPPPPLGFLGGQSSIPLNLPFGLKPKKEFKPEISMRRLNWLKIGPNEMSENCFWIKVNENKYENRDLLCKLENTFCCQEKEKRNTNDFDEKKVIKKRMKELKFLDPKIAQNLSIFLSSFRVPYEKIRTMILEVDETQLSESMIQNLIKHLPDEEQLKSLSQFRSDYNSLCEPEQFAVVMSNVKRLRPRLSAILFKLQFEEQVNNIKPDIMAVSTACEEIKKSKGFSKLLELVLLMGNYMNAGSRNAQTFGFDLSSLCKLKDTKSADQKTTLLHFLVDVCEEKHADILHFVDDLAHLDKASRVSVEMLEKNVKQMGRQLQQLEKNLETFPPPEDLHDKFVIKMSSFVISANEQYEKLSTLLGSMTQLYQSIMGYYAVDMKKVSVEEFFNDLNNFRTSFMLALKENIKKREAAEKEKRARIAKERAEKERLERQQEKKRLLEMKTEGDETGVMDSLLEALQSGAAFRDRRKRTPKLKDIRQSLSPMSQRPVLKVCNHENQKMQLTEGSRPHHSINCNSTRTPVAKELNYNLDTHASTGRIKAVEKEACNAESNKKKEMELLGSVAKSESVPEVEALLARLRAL
UniProt Q9UJX5: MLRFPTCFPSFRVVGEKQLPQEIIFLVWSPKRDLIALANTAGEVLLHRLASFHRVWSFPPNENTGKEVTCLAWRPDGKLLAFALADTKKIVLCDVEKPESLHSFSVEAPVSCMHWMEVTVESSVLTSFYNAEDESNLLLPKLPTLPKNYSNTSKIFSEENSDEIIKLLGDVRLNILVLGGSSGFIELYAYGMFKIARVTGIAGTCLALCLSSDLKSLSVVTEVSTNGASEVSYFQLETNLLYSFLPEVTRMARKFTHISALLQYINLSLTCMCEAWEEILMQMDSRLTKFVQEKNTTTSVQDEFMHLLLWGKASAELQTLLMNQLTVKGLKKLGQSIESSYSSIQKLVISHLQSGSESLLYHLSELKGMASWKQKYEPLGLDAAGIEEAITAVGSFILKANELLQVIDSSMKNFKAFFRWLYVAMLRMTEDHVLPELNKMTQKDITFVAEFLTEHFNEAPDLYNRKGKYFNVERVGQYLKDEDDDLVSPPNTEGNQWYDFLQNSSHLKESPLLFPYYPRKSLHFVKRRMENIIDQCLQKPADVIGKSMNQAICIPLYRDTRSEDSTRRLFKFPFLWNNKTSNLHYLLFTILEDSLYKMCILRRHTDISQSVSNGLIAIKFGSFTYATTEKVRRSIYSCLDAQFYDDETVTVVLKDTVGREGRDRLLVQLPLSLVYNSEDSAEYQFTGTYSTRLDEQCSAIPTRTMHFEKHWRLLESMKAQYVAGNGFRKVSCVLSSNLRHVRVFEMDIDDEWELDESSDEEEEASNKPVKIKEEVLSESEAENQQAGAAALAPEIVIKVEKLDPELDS
UniProt P63208: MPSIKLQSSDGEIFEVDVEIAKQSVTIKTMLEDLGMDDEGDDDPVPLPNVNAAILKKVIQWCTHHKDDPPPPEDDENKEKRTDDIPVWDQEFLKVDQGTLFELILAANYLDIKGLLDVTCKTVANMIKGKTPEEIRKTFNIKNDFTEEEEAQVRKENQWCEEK
UniProt Q9UNE7: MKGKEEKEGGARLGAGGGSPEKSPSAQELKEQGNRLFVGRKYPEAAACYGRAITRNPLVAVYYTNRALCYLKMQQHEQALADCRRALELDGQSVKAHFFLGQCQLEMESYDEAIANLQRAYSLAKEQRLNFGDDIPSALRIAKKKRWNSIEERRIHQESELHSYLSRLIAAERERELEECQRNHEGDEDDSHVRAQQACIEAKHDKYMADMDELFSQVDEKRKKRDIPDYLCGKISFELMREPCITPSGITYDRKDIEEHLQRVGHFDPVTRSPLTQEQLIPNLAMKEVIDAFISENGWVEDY

No constants are given. Whether binding was seen depends on the method and setting. Binding seen in cells or lysates may run through a third protein. These calls come from enrichment with a bait or labelling near it, and not all partners need be listed.

The target of the test is full-length Diaph3-M1041A-Flag (mouse) (UniProt Q9Z207). The experiment in a line: affinity purification with mass spectrometry; Diaph3-M1041A-Flag overexpressed in HEK293T, 48 h, MG132 for 6 h; immunoprecipitation with Flag antibodies, SDS-PAGE, in-gel trypsin digest, LC-MS/MS; search against UniProt Homo sapiens.

Regarding “Anapc4 (endogenous, found by mass spectrometry) (from UniProt Q9UJX5 1-808)”, the binding entry is listed as “binds”.

“Skp1 (endogenous, found by mass spectrometry) (from UniProt P63208 1-163)”: the binding entry was “binds”.

For “Stub1 (endogenous, found by mass spectrometry) (from UniProt Q9UNE7 1-303) (enzyme)”, the binding entry is “binds”.
